We go through 1 molecule from paper PMC11088704, “Structural basis for the regulation of plant transcription factor WRKY33 by the VQ protein SIB1” (Communications Biology, 2024).

Chains of the proteins cited; added tags and fusions are not shown.
UniProt Q8S8P5: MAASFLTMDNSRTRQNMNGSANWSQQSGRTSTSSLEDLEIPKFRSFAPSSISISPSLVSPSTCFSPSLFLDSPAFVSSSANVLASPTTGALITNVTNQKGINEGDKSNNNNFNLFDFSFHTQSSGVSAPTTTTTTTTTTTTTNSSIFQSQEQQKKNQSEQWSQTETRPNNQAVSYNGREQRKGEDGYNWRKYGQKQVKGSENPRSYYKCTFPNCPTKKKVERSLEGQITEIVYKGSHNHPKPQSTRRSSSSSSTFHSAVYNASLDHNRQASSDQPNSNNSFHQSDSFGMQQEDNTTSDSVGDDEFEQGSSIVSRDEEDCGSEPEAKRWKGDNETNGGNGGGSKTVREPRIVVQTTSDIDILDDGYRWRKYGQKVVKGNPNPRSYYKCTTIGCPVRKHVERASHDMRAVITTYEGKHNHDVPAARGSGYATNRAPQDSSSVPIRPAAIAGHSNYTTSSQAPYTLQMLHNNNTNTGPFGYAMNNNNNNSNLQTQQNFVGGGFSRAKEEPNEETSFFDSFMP

Results are given in words; binding and its absence hold for the method and conditions named.

The test addresses WRKY33 C-terminal DNA-binding domain (WRKY33_C) (Arabidopsis thaliana) (UniProt Q8S8P5). Put plainly: NMR titration; 2D 1H-15N HSQC of 15N-labeled WRKY33_C (or its mutants), 0.1 mM, with SIB1 or SIB1 peptides added at 2:1 (5:1 also for SIB1^40–60 and SIB1^55–69); 30 mM MES pH 6.0, 50 mM NaCl, 20 uM ZnSO4, 10% D2O, 25 °C; both purified.

Take FRELVQELTG [SIB1^58–67 decapeptide (VQ motif)]: the binding result is listed as “no binding”.
